Measurements taken from PubChem BioAssay AID540276 (National Center for Advancing Translational Sciences (NCATS), 2011).
The whole screen tested about 300,000 compounds, of which about 5,400 (1.8%) were called active. Inconclusive results, whose numbers are uncertain, are shown with a selection of clear calls. Calls come from the whole dose curve; tested in HEK293 cells. A potency beside an inconclusive call is a rough fit, not a confirmed value.

experiment: qHTS for inhibitors of binding or entry into cells for Marburg Virus; settings: Marburg virus pseudotyped entry inhibition, cell reporter; activity change, negative = inhibition: at 37.8 µM (top of the series) unless noted
% is set by controls: 0 for no effect and ±100 for the full control effect; potency is the fitted concentration of half-maximal effect.

SMILES | Potency | activity change, negative = inhibition
CCC(C)Nc1nc(CN2CCOCC2)nc2sc3c(c12)CCC3 (stereo unspecified) | inconclusive: 35.5 µM [inhibitor, single point] | 
CC(C)COCc1ccc(O)c2ncccc12 | inconclusive: 35.5 µM [inhibitor, single point] | 
CCOc1ccccc1CNC(=O)c1oc2ccc3c(c2c1C)C(=O)CC(C)(C)O3 | inconclusive: 35.5 µM [inhibitor, single point] | 
O=c1c2sc3ccccc3c2n(Cc2ccc(F)cc2Cl)c(=O)n1Cc1ccccc1 | inconclusive: 5.62 µM [activator, single point] | 
COc1cccc(NC(=O)CN(C)C(=O)c2ccc(-c3ccc(Cl)cc3)o2)c1 | inconclusive: 31.6 µM [inhibitor, single point] | 
CCCn1c(NC(=O)c2ccc(C)cc2)nc2ccccc21 |  | inactive: -26.9%
C=CCN=C(C)C1=C(O)CCC1=O |  | inactive: 9.6%
Cn1c(SCc2ccccn2)nnc1-c1ccccc1 |  | inactive: 19.7% [at 46.1 µM]
CCP(=O)(CC)C(C)(C)CP(=O)(c1ccccc1)c1ccccc1 |  | inactive: 10.1%
Cc1cc(C)cc(NC(=O)CC2NCCNC2=O)c1 (stereo unspecified) |  | inactive: 6.79%
O=S(=O)(N1CCCCC1)n1c(Cc2ccccc2)nc2ccccc21 | inconclusive: 29.1 µM [inhibitor, single point] | 
O=C(OCc1c(F)cccc1Cl)c1cnc(Cl)c(Cl)c1 |  | inactive: -5.99% [at 46.1 µM]
COc1ccc(C(CNC(=O)c2ccc(-c3ccccc3Cl)o2)N2CCOCC2)cc1 (stereo unspecified) | inconclusive: 15.8 µM [inhibitor, partial curve, poor fit] | 
Cc1nn(Cc2ccc(Cl)c(Cl)c2)c(C)c1NC(=O)c1cn(-c2ccccc2)nc1-c1ccccc1 | inconclusive: 15.8 µM [inhibitor, partial curve, poor fit] | 
CCc1cc2cc(C(=O)Nc3ccccc3F)sc2s1 | inconclusive: 1.83 µM [activator, partial curve] | 
COc1ccc(OCC(=O)Nc2ccc3oc(=O)ccc3c2)cc1 |  | inactive: 1.22% [at 46.1 µM]
COc1ccc(Cn2nnnc2C(c2cccs2)N2CCN(c3ccccc3)CC2)cc1 (stereo unspecified) | inconclusive: 13 µM [inhibitor, partial curve, poor fit] | 
Cc1cccc(CN2CCN(C(c3ccccc3)c3ccc(Cl)cc3)CC2)c1 (stereo unspecified) | inconclusive: 18.4 µM [inhibitor, single point] | 
CC(=O)N1CN2CN(C(C)=O)CC(C(=O)c3ccccc3)(C2)C1 | inconclusive: 0.562 µM [activator, partial curve, poor fit] | 
O=C(COC(=O)c1c(F)cccc1Cl)NC1CCCCC1 | inconclusive: 6.31 µM [activator, single point] | 
O=C(CN(C(=O)c1ccccc1)N1C(=O)CCC1=O)c1cccs1 |  | inactive: 3.83%
CCNC(=O)CC1SC(=Nc2ccc(C)cc2)NC1=O (stereo unspecified) | inconclusive: 4.47 µM [activator, partial curve, poor fit] | 
COc1cc(/C=C/C(=O)OCC(=O)Nc2oc(C)c3c(C)n[nH]c(=O)c23)ccc1OC(F)F | inconclusive: 6.31 µM [inhibitor, single point] | 
O=C(Nc1ccc(Cl)cc1[N+](=O)[O-])c1ccc2c(c1)OCCO2 |  | inactive: -27.6%

SMILES | Potency | activity change, negative = inhibition
Cn1c(Cl)nc2ccccc21 |  | inactive: 2.12%
O=C(NNc1c2ccccc2nc2ccccc12)c1cccc(O)c1 | inconclusive: 35.5 µM [inhibitor, single point] | 
CC(Oc1ccc(F)cc1)C(=O)Nc1ccccc1N1CCCCC1 (stereo unspecified) | inconclusive: 10 µM [inhibitor, partial curve] | 
CC1=C(C)CC2(SC1)C(=O)N(c1ccccc1)N=C2N (stereo unspecified) | inconclusive: 6.31 µM [activator, partial curve, poor fit] | 
CC(=C/C(=O)O)/C=C/c1ccco1 | inconclusive: 0.282 µM [activator, partial curve, poor fit] | 
CCCNS(=O)(=O)c1cccc(C(=O)NC2CCCc3ccccc32)c1 (stereo unspecified) |  | inactive: 1.37%
O=C(Cn1c(O)c(/C=C2\C=Nc3ccc(Br)cc32)sc1=O)N1CCCC1 | inconclusive: 5.8 µM [inhibitor, partial curve, poor fit] | 
Clc1ccc(-c2noc(CCCOc3ccccc3)n2)cc1 |  | inactive: 1.07%
CC(CNC(=O)C1CCN(C(=O)c2cc3sccc3n2C)CC1)c1ccccc1 (stereo unspecified) |  | inactive: 0.668% [at 46.1 µM]
COC(=O)N/N=C1\CCCc2c(C)cc(C)cc21 | inconclusive: 6.31 µM [inhibitor, single point] | 
Cc1cc(C)cc(OCC(=O)Nc2cccc(-c3nnc(-c4ccco4)o3)c2)c1 |  | inactive: -12.9%
CCCCCCCC(=O)Oc1ccc(C(=O)Nc2cc(C)on2)cc1 | inconclusive: 1 µM [activator, full curve, poor fit] | 
COc1ccc(NC(=S)NNC(=O)c2nnn(-c3ccccc3)c2C)cc1 | inconclusive: 35.5 µM [activator, single point] | 
CCCC[C@]12Cc3cc(C#N)ccc3[C@H](O1)c1c(cc(C)n(-c3ccccc3)c1=O)O2 |  | inactive: -13.9% [at 14.2 µM]
CCOc1ccc(/C=N/N(C)c2ccccc2)cc1OC | inconclusive: 35.5 µM [inhibitor, single point] | 
CCC(C(=O)NC1CCCCC1)n1c(SCc2cccc(F)c2)nc2ccncc21 (stereo unspecified) | inconclusive: 0.562 µM [inhibitor, full curve, poor fit] | 
CC1=CC(C)(C)N2C(=O)C3(C(C#N)=C(N)OC4=C3C(=O)CC(C)(C)C4)c3c(C)c(C)cc1c32 (stereo unspecified) | inconclusive: 32.6 µM [inhibitor, partial curve, poor fit] | 
O=C(COC(=O)c1cc2c(s1)CCCCC2)NC1CCS(=O)(=O)C1 (stereo unspecified) | inconclusive: 6.31 µM [activator, single point] | 
Cc1ccc(N/C(CSC(N)=O)=N/S(=O)(=O)c2ccccc2)cc1 |  | inactive: -4.3%
CC(C)(C)N=C1NC(=NC(C)(C)C)c2ccccc21 | active: 14.6 µM | 
COc1ccc(/C(C)=N/NC(=O)c2sccc2-n2cccc2)cc1 | inconclusive: 5.62 µM [inhibitor, single point] | 
Cc1ccc(S(=O)(=O)c2cc3ccccc3oc2=O)cc1 |  | inactive: -16.1% [at 46.1 µM]
Cc1cc2n(n1)C(c1ccccc1Cl)Nc1ccccc1-2 (stereo unspecified) | inconclusive: 0.146 µM [inhibitor, partial curve, poor fit] | 
COc1ccc(Nc2ccc(S(=O)(=O)N3CCCCCC3)cc2[N+](=O)[O-])cc1 | inconclusive: 10 µM [inhibitor, partial curve, poor fit] | 

SMILES | Potency | activity change, negative = inhibition
CC1=NNC(=O)C1Cc1ccccc1 (stereo unspecified) | inconclusive: 35.5 µM [activator, single point] | 
COc1ccc2c(c1)Sc1ccccc1N2CCN(C)C | active: 11.2 µM | 
O=C1/C(=C/c2ccncc2)SC(=S)N1C1CCS(=O)(=O)C1 (stereo unspecified) | inconclusive: 1.16 µM [inhibitor, full curve, poor fit] | 
O=C(C1CCN(S(=O)(=O)Cc2ccccc2)CC1)N1CCN(c2ccccc2)CC1 | inconclusive: 5.62 µM [inhibitor, single point] | 
CC(C)(C)C1CCc2onc(C(=O)Nc3cccnc3)c2C1 (stereo unspecified) | inconclusive: 11.6 µM [inhibitor, partial curve, poor fit] | 
COc1ccc(OC)c(-c2csc(NC(=O)C3c4ccccc4Oc4ccccc43)n2)c1 |  | inactive: -7.19%
CCOC(=O)N1CCC(=NNS(=O)(=O)c2cccc([N+](=O)[O-])c2)CC1 |  | inactive: -5.79%
COc1ccc2nc(NC(=O)c3nc(SC(C)C)ncc3Cl)sc2c1 | inconclusive: 0.562 µM [activator, full curve, poor fit] | 
Cc1ccc(C(=O)NCc2ccc3c(c2)OCO3)cc1Cl |  | inactive: 17.4%
CCN1CC(O)=C(c2nc3ccccc3s2)C1=N | inconclusive: 35.5 µM [activator, single point] | 
Cc1cccc(OCc2nnc(SCC(=O)c3ccccc3)o2)c1 | inconclusive: 5.62 µM [activator, single point] | 
CCN(CC)C(=O)c1sc2nc(Cc3ccccc3)[nH]c(=O)c2c1C | inconclusive: 6.31 µM [inhibitor, single point] | 
Cn1c(CN2CCCCC2)nc2cc(NC(=O)c3ccccc3Cl)ccc21 | inconclusive: 11.2 µM [inhibitor, partial curve, poor fit] | 
O=C(Nc1ncc(Cc2ccc(C(F)(F)F)cc2)s1)c1ccc(-c2cccc([N+](=O)[O-])c2)o1 | inconclusive: 6.31 µM [inhibitor, full curve] | 
Cc1ccc(C(CC(=O)NCc2ccco2)c2ccc(OC(C)C)cc2)cc1 (stereo unspecified) | inactive | 
Cc1ccc(C(=O)N2CCN(c3ccc(NC(=O)c4ccc(Br)o4)cc3)CC2)cc1 | inconclusive: 17.8 µM [inhibitor, single point] | 
CCOC(=O)CSc1nnc(CNc2nc(-c3ccccc3)cs2)n1C | inconclusive: 10 µM [activator, single point] | 
COc1ccc(C2=NOC(C(=O)NCc3ccco3)C2)cc1OC (stereo unspecified) | inconclusive: 1.64 µM [inhibitor, full curve, poor fit] | 
CCOC(=O)C1CCCN(S(=O)(=O)CCNC(=O)c2ccc3c(c2)OCO3)C1 (stereo unspecified) | inconclusive: 0.891 µM [inhibitor, partial curve] | 
CSc1nnc(-c2sc(-c3ccccc3)nc2C)n1C |  | inactive: 5%
C=CCOc1ccc(C2NC(=S)NC3=C2CCc2ccccc23)cc1 (stereo unspecified) | inconclusive: 6.31 µM [inhibitor, partial curve, poor fit] | 
CN(Cc1ccccc1)CC(O)COc1ccc(CNCc2nccn2C)cc1 (stereo unspecified) | inconclusive: 25.1 µM [inhibitor, single point] | 
Cc1ccc(OCC(=O)Nc2ccc3nc(SCC(=O)N4CCOCC4)sc3c2)cc1 |  | inactive: -16.2% [at 46.1 µM]

Another view of part of the listing above.
SMILES	Potency	activity change, negative = inhibition
O=C(C1CCN(S(=O)(=O)Cc2ccccc2)CC1)N1CCN(c2ccccc2)CC1	inconclusive: 5.62 µM [inhibitor, single point]	
CC(C)(C)C1CCc2onc(C(=O)Nc3cccnc3)c2C1 (stereo unspecified)	inconclusive: 11.6 µM [inhibitor, partial curve, poor fit]	
COc1ccc(OC)c(-c2csc(NC(=O)C3c4ccccc4Oc4ccccc43)n2)c1		inactive: -7.19%
CCOC(=O)N1CCC(=NNS(=O)(=O)c2cccc([N+](=O)[O-])c2)CC1		inactive: -5.79%
COc1ccc2nc(NC(=O)c3nc(SC(C)C)ncc3Cl)sc2c1	inconclusive: 0.562 µM [activator, full curve, poor fit]	
Cc1ccc(C(=O)NCc2ccc3c(c2)OCO3)cc1Cl		inactive: 17.4%
CCN1CC(O)=C(c2nc3ccccc3s2)C1=N	inconclusive: 35.5 µM [activator, single point]	
Cc1cccc(OCc2nnc(SCC(=O)c3ccccc3)o2)c1	inconclusive: 5.62 µM [activator, single point]	
CCN(CC)C(=O)c1sc2nc(Cc3ccccc3)[nH]c(=O)c2c1C	inconclusive: 6.31 µM [inhibitor, single point]	
Cn1c(CN2CCCCC2)nc2cc(NC(=O)c3ccccc3Cl)ccc21	inconclusive: 11.2 µM [inhibitor, partial curve, poor fit]	
O=C(Nc1ncc(Cc2ccc(C(F)(F)F)cc2)s1)c1ccc(-c2cccc([N+](=O)[O-])c2)o1	inconclusive: 6.31 µM [inhibitor, full curve]	
Cc1ccc(C(CC(=O)NCc2ccco2)c2ccc(OC(C)C)cc2)cc1 (stereo unspecified)	inactive	
Cc1ccc(C(=O)N2CCN(c3ccc(NC(=O)c4ccc(Br)o4)cc3)CC2)cc1	inconclusive: 17.8 µM [inhibitor, single point]	
CCOC(=O)CSc1nnc(CNc2nc(-c3ccccc3)cs2)n1C	inconclusive: 10 µM [activator, single point]	
COc1ccc(C2=NOC(C(=O)NCc3ccco3)C2)cc1OC (stereo unspecified)	inconclusive: 1.64 µM [inhibitor, full curve, poor fit]	
CCOC(=O)C1CCCN(S(=O)(=O)CCNC(=O)c2ccc3c(c2)OCO3)C1 (stereo unspecified)	inconclusive: 0.891 µM [inhibitor, partial curve]	
CSc1nnc(-c2sc(-c3ccccc3)nc2C)n1C		inactive: 5%
C=CCOc1ccc(C2NC(=S)NC3=C2CCc2ccccc23)cc1 (stereo unspecified)	inconclusive: 6.31 µM [inhibitor, partial curve, poor fit]	
CN(Cc1ccccc1)CC(O)COc1ccc(CNCc2nccn2C)cc1 (stereo unspecified)	inconclusive: 25.1 µM [inhibitor, single point]	
Cc1ccc(OCC(=O)Nc2ccc3nc(SCC(=O)N4CCOCC4)sc3c2)cc1		inactive: -16.2% [at 46.1 µM]
